Plain letter strings leave the end groups untold.

The series is described as follows: general procedure: Fmoc solid-phase peptide synthesis; preloaded PEG-PS supports. Particulars: whole synthesis, 214 nm.

As for DSHAKRHHGYKRKFHEKHHSHRGY, the “final HPLC purity” value is reported as “at least 90%”.

The record behind these values is patent publication US20110045073A1 (priority 2008, published 2011).
